Experimental data: doi:10.1101/2021.03.24.436784
Where two headings read alike, the source gives them in different places. These are yes or no findings as the source states them, for the method shown. In cells and extracts the contact can be indirect. These calls come from enrichment with a bait or labelling near it, and not all partners need be listed. For some assays here: A no says only that the protein was not detected with the bait. Tags and fused reporters may be left off the sequences shown. Each block holds one molecule with its values, some of them ahead of it.

Assays:
Test in all cases: affinity purification with mass spectrometry
[1] = biological target: T1, Buc-GFP (full length Bucky ball fused to GFP) (zebrafish) (UniProt H0WFA5)
T1 sequence: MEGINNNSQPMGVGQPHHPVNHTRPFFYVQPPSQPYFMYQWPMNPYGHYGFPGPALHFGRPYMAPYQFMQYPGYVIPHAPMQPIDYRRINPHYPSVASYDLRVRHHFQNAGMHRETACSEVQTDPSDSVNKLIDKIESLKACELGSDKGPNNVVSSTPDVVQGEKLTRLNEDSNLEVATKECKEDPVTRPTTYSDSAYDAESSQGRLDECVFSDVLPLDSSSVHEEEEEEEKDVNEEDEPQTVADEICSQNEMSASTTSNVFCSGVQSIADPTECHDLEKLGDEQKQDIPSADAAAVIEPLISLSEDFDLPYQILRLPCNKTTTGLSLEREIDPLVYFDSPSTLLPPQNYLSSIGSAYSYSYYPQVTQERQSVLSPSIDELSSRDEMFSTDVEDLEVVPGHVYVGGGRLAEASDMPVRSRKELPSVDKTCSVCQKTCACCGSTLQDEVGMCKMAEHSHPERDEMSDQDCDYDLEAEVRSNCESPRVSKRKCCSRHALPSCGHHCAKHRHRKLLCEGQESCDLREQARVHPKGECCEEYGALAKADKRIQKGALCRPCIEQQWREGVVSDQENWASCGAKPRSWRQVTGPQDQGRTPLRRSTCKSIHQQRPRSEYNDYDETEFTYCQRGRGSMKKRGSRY

[2] = biological target: T2, BucLoc-GFP (Bucky ball aa 11-88 fused to GFP) (zebrafish) (UniProt H0WFA5)
T2 sequence: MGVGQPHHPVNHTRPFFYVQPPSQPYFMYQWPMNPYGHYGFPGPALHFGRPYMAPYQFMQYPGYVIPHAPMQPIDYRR

[3] = biological target: T1, Buc-GFP (full length Bucky ball fused to GFP) (zebrafish); remark: listed apart in the source
[4] = biological target: T2, BucLoc-GFP (Bucky ball aa 11-88 fused to GFP) (zebrafish); remark: listed apart in the source

binding [1]: no binding
Molecule: Cldn-a (zebrafish (endogenous in embryos))

binding [1]: binds
binding [2]: binds
Molecule: Myosin Light Chain (zebrafish (endogenous in embryos))

binding [3]: binds
binding [4]: binds
B1: Claudin-d (Cldn-d) (protein, UniProt Q9YH91 1-208)
chain: MASVGLQLLATVLAIIGWLGEIVICALPMWKVTAFIGNNIVTAQIFWEGLWMNCVQQSTGQMQCKVYDSMLALPQDLQAARALVVISIIVTFMGVFLTIAGGKCTNCIEDQDAKAKVVVAAGVFFLVGGILCLIPVCWSANSVIKDFYNPTLSDAQKRELGASLFIGWCASGLLLLGGALLCCQCPKNEGRAYSVKYSAPRSAPGAYV
